From the supplement of paper PMC6411743
± gives the standard deviation of the averaged measurements. The list shows a part of the results, in another mix than the full data.

The chains behind the UniProt entries cited, without tags or fusion partners. Where a name states a change or a piece, a line headed by the entry shows the natural chain unless it says otherwise.
UniProt Q9Y4Z0: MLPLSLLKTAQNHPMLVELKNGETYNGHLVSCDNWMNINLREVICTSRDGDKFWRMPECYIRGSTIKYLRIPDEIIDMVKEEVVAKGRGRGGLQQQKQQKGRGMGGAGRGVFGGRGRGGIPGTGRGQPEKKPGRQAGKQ
UniProt Q9Y6Q9, whole entry, looked up: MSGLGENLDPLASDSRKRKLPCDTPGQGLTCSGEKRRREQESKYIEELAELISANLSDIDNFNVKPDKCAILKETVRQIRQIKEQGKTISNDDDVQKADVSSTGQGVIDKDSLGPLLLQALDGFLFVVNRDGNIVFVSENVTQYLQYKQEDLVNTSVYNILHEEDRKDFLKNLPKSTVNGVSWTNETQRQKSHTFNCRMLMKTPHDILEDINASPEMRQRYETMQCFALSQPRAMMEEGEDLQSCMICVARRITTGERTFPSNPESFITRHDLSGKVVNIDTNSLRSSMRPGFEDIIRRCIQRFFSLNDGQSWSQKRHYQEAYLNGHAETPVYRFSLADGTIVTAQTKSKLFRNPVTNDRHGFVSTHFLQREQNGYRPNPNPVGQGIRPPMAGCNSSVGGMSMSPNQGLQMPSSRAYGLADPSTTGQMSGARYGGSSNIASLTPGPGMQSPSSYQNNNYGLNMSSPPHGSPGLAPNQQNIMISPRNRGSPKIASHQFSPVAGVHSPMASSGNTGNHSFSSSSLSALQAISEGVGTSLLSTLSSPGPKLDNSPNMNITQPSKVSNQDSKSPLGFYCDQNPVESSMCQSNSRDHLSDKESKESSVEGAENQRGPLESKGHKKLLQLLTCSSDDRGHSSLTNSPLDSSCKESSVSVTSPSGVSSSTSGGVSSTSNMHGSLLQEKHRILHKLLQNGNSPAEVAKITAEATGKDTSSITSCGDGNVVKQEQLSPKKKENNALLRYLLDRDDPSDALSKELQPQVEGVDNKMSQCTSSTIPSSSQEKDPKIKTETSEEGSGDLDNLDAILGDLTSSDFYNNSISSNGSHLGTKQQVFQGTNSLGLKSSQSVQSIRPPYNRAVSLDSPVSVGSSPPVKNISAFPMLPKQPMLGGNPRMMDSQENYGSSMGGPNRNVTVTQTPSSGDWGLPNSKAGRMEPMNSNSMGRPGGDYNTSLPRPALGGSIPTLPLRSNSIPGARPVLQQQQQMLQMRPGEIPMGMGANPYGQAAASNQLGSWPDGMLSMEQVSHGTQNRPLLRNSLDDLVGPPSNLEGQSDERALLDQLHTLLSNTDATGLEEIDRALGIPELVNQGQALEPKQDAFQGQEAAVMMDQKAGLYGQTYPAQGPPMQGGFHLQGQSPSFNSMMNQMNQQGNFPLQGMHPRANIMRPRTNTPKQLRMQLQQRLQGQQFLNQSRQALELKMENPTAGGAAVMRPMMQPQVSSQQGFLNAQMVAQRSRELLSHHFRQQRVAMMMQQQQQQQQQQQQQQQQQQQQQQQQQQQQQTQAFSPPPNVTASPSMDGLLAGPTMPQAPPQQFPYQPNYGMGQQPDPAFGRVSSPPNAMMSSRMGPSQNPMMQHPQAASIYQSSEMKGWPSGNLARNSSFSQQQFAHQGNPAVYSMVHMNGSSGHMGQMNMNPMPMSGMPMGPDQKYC
UniProt Q9Y4E6, whole entry: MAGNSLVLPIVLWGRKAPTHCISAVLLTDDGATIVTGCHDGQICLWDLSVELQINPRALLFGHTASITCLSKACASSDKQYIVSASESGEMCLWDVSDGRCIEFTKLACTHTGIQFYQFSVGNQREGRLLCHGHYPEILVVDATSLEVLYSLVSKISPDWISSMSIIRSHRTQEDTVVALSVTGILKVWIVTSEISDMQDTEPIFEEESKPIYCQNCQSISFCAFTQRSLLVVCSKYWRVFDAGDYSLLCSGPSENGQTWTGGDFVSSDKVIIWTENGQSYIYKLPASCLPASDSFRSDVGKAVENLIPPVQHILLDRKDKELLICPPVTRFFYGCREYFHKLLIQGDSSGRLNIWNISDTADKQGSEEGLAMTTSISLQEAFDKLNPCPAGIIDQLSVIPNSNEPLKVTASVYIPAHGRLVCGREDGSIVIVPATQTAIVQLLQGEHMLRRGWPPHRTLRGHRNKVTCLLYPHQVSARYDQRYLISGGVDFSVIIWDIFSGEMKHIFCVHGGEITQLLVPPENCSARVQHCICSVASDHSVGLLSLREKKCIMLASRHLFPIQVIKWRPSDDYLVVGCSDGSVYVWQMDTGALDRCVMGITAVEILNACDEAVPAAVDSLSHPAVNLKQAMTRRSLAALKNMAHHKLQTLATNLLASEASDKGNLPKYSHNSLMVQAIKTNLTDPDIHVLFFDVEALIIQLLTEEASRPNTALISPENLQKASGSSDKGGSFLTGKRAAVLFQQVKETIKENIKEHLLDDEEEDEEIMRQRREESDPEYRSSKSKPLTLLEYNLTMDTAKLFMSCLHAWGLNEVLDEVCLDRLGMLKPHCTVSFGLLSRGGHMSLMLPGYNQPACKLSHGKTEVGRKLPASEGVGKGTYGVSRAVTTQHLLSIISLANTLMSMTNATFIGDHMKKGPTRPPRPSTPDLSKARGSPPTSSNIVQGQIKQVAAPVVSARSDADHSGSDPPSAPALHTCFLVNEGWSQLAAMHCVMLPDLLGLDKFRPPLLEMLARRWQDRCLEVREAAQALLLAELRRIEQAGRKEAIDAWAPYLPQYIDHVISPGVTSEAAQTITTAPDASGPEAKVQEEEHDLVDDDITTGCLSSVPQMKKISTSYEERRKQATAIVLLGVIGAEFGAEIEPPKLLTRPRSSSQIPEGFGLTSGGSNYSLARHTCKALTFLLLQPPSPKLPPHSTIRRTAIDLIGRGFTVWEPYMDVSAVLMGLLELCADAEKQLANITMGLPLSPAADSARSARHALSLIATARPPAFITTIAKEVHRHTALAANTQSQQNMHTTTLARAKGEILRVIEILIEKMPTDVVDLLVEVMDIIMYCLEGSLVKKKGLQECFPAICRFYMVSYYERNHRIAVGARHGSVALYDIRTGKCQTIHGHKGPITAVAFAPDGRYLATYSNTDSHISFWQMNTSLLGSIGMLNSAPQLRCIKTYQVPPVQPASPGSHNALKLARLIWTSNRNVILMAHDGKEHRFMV
UniProt Q9Y6B6: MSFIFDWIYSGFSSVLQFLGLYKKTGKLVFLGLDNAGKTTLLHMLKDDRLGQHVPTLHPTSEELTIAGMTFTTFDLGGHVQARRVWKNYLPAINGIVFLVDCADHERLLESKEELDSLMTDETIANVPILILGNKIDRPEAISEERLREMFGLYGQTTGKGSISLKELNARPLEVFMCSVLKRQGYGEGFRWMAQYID
UniProt Q9Y5X2: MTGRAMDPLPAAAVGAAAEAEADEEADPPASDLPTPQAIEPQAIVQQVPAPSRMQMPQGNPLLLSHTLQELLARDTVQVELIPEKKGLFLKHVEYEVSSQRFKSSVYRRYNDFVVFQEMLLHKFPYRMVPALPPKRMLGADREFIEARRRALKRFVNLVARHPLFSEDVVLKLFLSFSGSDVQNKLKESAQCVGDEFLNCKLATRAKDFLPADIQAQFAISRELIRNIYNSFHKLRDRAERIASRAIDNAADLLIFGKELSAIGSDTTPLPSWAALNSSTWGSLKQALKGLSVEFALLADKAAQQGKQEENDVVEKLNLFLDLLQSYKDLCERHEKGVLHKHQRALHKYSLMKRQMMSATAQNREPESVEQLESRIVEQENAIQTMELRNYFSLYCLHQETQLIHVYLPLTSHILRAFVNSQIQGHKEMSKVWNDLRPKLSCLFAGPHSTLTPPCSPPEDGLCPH
UniProt Q9Y6M9, whole entry: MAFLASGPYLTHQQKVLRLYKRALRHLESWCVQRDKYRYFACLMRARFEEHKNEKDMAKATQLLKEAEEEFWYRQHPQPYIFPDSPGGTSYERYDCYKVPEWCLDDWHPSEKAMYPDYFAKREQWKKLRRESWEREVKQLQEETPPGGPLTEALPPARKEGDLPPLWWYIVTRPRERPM
UniProt Q9Y3D2: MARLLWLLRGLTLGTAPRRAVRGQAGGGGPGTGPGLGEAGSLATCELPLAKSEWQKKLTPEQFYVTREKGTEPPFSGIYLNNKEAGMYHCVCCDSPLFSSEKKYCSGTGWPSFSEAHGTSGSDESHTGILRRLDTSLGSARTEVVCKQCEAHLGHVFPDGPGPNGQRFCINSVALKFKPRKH
UniProt Q9Y5K6, whole entry: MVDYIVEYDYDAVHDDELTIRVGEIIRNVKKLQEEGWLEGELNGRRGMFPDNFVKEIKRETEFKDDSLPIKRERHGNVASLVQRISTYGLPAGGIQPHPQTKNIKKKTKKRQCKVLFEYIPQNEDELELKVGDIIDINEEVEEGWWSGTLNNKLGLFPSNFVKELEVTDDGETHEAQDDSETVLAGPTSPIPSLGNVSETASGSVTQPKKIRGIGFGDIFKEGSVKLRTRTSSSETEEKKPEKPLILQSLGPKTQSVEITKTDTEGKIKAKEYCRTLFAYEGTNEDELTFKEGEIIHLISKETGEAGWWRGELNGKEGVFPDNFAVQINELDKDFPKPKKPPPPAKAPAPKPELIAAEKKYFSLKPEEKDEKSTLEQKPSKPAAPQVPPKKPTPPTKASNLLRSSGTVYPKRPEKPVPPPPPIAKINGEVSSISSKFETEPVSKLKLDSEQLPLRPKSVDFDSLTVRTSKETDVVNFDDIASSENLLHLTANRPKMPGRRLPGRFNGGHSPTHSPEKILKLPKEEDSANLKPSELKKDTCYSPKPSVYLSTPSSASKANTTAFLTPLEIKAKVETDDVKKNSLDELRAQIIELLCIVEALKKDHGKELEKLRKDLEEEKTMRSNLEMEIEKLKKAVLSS
UniProt Q9Y3S2: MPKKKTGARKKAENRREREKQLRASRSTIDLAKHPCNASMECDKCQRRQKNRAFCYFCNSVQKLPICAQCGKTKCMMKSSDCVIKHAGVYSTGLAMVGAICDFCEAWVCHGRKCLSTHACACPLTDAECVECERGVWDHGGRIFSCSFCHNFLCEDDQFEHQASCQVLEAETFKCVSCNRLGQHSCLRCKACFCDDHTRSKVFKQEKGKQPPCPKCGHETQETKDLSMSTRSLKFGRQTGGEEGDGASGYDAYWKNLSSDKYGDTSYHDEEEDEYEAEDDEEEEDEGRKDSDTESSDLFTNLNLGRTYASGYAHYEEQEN
UniProt Q9Y4P1: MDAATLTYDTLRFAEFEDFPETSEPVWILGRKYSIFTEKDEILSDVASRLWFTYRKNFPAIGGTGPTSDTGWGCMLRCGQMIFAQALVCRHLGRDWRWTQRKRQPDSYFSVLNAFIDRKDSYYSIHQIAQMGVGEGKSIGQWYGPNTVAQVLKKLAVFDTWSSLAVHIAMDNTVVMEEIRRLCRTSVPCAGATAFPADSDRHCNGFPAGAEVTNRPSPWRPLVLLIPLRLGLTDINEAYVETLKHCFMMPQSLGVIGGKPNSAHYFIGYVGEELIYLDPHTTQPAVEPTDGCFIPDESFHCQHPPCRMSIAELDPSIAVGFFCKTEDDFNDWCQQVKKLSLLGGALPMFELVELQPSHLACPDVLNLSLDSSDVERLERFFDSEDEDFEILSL
UniProt Q9Y6K5: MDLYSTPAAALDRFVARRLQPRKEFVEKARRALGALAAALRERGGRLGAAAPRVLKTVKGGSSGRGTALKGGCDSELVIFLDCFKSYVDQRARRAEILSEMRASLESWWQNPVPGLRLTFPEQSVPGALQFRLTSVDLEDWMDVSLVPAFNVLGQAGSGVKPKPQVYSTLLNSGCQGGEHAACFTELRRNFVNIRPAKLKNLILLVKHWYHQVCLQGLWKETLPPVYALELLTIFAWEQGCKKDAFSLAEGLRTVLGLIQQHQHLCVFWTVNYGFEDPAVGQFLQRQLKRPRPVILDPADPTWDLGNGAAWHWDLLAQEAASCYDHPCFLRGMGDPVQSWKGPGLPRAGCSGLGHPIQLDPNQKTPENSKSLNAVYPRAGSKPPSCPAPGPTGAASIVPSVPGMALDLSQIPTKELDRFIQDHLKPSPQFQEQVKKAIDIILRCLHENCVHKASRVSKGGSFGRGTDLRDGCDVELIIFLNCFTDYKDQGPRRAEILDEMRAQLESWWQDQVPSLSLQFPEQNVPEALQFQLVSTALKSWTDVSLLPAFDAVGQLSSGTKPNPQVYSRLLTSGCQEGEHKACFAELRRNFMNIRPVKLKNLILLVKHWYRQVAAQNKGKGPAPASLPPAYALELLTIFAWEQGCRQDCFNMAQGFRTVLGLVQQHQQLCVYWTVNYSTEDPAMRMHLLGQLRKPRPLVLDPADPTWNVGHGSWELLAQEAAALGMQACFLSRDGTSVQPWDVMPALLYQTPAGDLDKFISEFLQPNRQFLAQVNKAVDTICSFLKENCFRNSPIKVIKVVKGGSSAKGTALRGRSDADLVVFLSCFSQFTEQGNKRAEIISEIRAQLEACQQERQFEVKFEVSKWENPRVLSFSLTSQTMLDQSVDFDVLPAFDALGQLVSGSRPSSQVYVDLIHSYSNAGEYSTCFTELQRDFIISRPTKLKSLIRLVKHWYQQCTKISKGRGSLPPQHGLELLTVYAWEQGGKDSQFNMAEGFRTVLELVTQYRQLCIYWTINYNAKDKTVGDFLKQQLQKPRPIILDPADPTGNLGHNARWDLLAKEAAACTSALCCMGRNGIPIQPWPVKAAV

Compound: Nc1ncnc2c1ncn2[C@@H]1O[C@H](COP(=O)(O)OP(=O)(O)OP(=O)(O)O)[C@@H](O)[C@H]1O [adenosine triphosphate]
Experiment: NP40-soluble protein abundance relative to vehicle (solubility fold change) (ratio); higher = more soluble protein in presence of ATP
In short: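 Crude Jurkat lysate, prepared by Dounce homogenisation, was exposed to eight concentrations from 0.1 to 10 mM for 10 min at room temperature and then 3 min at 37 °C. Solubilisation used 0.8% NP40 with benzonase for 60 min at 4 °C, followed by ultracentrifugation and TMT labelling of the supernatant for LC-MS/MS. After vsn normalisation of intensities, each value is the fold change against the detergent-processed vehicle within each replicate, across three independent experiments.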

Target	NP40-soluble protein abundance (concentration: 1mM)	NP40-soluble protein abundance (concentration: 2mM)	NP40-soluble protein abundance (concentration: 4mM)	NP40-soluble protein abundance (concentration: 6mM)	NP40-soluble protein abundance (concentration: 8mM)	NP40-soluble protein abundance (concentration: 10mM)
MYH15 (UniProt Q9Y2K3)	1.11 ± 0.19	1.03 ± 0.13	1.08 ± 0.24	1.08 ± 0.31	1.18 ± 0.43	1.1 ± 0.25
IVNS1ABP (UniProt Q9Y6Y0)	1.09 ± 0.027	1.02 ± 0.036	1.03 ± 0.041	0.985 ± 0.092	1.04 ± 0.11	1.04 ± 0.084
UniProt Q9Y3L5	1.06 ± 0.062	1.08 ± 0.045	1.09 ± 0.12	1.12 ± 0.13	1.12 ± 0.057	1.11 ± 0.083
LSM4 (UniProt Q9Y4Z0)	0.954 ± 0.023	0.974 ± 0.035	0.9643 ± 0.0079	0.942 ± 0.025	0.959 ± 0.058	0.936 ± 0.058
UniProt Q9Y4F3 and related entries	0.946 ± 0.099	0.971 ± 0.057	1.01 ± 0.061	1.01 ± 0.1	1.05 ± 0.097	1.07 ± 0.053
UniProt Q9Y6Q9 and related entries	0.945 ± 0.054	0.98 ± 0.037	0.93 ± 0.016	0.986 ± 0.04	0.94 ± 0.036	0.935 ± 0.0079
UniProt Q9Y4E6 and related entries	1.04 ± 0.017	1.02 ± 0.018	1.01 ± 0.023	1.01 ± 0.036	1.05 ± 0.021	1.01 ± 0.013
UniProt Q9Y4E5 and related entries	1.12 ± 0.072	1.09 ± 0.034	1.17 ± 0.052	1.2 ± 0.018	1.269 ± 0.0063	1.28 ± 0.056
WASF2 (UniProt Q9Y6W5)	0.93 ± 0.039	0.934 ± 0.022	0.911 ± 0.021	0.97 ± 0.064	0.906 ± 0.051	0.935 ± 0.02
ARFGEF2 (UniProt Q9Y6D5)	1.03 ± 0.019	0.991 ± 0.014	0.973 ± 0.015	1.01 ± 0.02	0.993 ± 0.012	1.03 ± 0.042
UniProt Q9Y4D1 and related entries	0.964 ± 0.078	0.973 ± 0.07	0.967 ± 0.06	0.962 ± 0.048	1 ± 0.016	1.005 ± 0.0064
AP3M1 (UniProt Q9Y2T2)	0.953 ± 0.1	0.953 ± 0.053	0.931 ± 0.053	0.885 ± 0.089	0.932 ± 0.024	0.955 ± 0.048
SAR1B (UniProt Q9Y6B6)	1 ± 0.082	1.01 ± 0.021	0.967 ± 0.045	0.989 ± 0.16	1.03 ± 0.07	0.96999 ± 0.00063
UniProt Q9Y6X9 and related entries	1.04 ± 0.02	1.024 ± 0.0079	1.04 ± 0.031	1.04 ± 0.019	0.99 ± 0.033	1.02 ± 0.035
UniProt Q9Y448 and related entries	0.866 ± 0.12	0.894 ± 0.085	0.908 ± 0.061	0.943 ± 0.077	0.892 ± 0.097	0.874 ± 0.089
SNX8 (UniProt Q9Y5X2)	1.05 ± 0.087	1.03 ± 0.038	1.05 ± 0.071	1.04 ± 0.03	1 ± 0.054	1.02 ± 0.068
TMED5 (UniProt Q9Y3A6)	0.997 ± 0.12	0.981 ± 0.068	0.941 ± 0.037	0.895 ± 0.12	0.954 ± 0.081	0.94 ± 0.054

Whole records from above. Values in the order: NP40-soluble protein abundance (concentration: 1mM)	NP40-soluble protein abundance (concentration: 2mM)	NP40-soluble protein abundance (concentration: 4mM)	NP40-soluble protein abundance (concentration: 6mM)	NP40-soluble protein abundance (concentration: 8mM)	NP40-soluble protein abundance (concentration: 10mM)
SAR1B (UniProt Q9Y6B6) as listed: 1 ± 0.082	1.01 ± 0.021	0.967 ± 0.045	0.989 ± 0.16	1.03 ± 0.07	0.96999 ± 0.00063
IVNS1ABP (UniProt Q9Y6Y0) as listed: 1.09 ± 0.027	1.02 ± 0.036	1.03 ± 0.041	0.985 ± 0.092	1.04 ± 0.11	1.04 ± 0.084

Later entries:

Target	NP40-soluble protein abundance (concentration: 1mM)	NP40-soluble protein abundance (concentration: 2mM)	NP40-soluble protein abundance (concentration: 4mM)	NP40-soluble protein abundance (concentration: 6mM)	NP40-soluble protein abundance (concentration: 8mM)	NP40-soluble protein abundance (concentration: 10mM)
UniProt Q9Y6M9 and related entries	1.02 ± 0.09	0.968 ± 0.041	0.963 ± 0.044	0.984 ± 0.12	0.929 ± 0.034	0.861 ± 0.15
ATP6V0A2 (UniProt Q9Y487)	1 ± 0.038	1.01 ± 0.058	0.981 ± 0.011	0.979 ± 0.093	0.992 ± 0.011	0.96 ± 0.038
ARIH1 (UniProt Q9Y4X5)	1.02 ± 0.087	1.01 ± 0.086	0.988 ± 0.069	0.952 ± 0.11	1 ± 0.057	0.995 ± 0.058
MSRB2 (UniProt Q9Y3D2)	1.04 ± 0.1	1.02 ± 0.095	0.986 ± 0.076	1.02 ± 0.088	0.99 ± 0.074	0.992 ± 0.056
UniProt Q9Y4B5 and related entries	1.07 ± 0.098	1.11 ± 0.085	1.09 ± 0.063	1.12 ± 0.046	1.08 ± 0.055	1.1 ± 0.021
LRRC42 (UniProt Q9Y546)	1.01 ± 0.089	0.968 ± 0.043	1.07 ± 0.043	1.03 ± 0.07	1.01 ± 0.043	0.977 ± 0.083
UniProt Q9Y692 and related entries	0.952 ± 0.015	0.998 ± 0.059	1.02 ± 0.033	0.982 ± 0.04	0.956 ± 0.038	0.964 ± 0.039
CD2AP (UniProt Q9Y5K6)	0.9636 ± 0.002	0.947 ± 0.012	0.918 ± 0.021	0.978 ± 0.034	0.927 ± 0.041	0.93 ± 0.028
ZNF330 (UniProt Q9Y3S2)	0.99 ± 0.023	0.96 ± 0.036	0.971 ± 0.058	0.982 ± 0.039	0.992 ± 0.046	0.968 ± 0.018
F11R (UniProt Q9Y624)	0.924 ± 0.081	0.929 ± 0.049	0.933 ± 0.1	0.949 ± 0.085	0.88 ± 0.051	0.902 ± 0.1
UniProt Q9Y3B7 and related entries	1.1 ± 0.24	0.945 ± 0.1	1.06 ± 0.18	1.02 ± 0.35	1.08 ± 0.22	0.852 ± 0.21
UniProt Q9Y316 and related entries	1 ± 0.1	0.976 ± 0.099	0.976 ± 0.1	0.951 ± 0.17	0.995 ± 0.12	0.972 ± 0.052
UniProt Q9Y2X0-2|Q9Y2X0-3|Q9Y2X0	1.14 ± 0.14	1.04 ± 0.086	1.07 ± 0.093	0.937 ± 0.014	1.09 ± 0.074	1.01 ± 0.064
UniProt Q9Y4P1 and related entries	1.05 ± 0.15	1.01 ± 0.11	0.992 ± 0.1	0.928 ± 0.15	0.97 ± 0.086	0.999 ± 0.059
OAS3 (UniProt Q9Y6K5)	1.02 ± 0.082	1.01 ± 0.053	1.02 ± 0.06	0.997 ± 0.11	1.03 ± 0.043	1.03 ± 0.055
UniProt Q9Y2S0 and related entries	1.07 ± 0.11	1.06 ± 0.093	1.09 ± 0.06	1.15 ± 0.12	1.06 ± 0.055	1.06 ± 0.13
